Assay results reported in the supplement of paper PMC10689618.
Counter-ions that a name gives are not always drawn. Some of the results follow. Many values rest on one well or one pass, so single values are uncertain.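 Primary human fetal astrocytes engulfed labelled rat cortical synaptosomes, measured as a red/green ratio corrected for calcein live-cell signal and scaled to the plate median. Toxicity meant calcein falling over 30%; decreased phagocytosis meant below 70% of median above 5 µM.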

Tests used:
Human fetal astrocytes [1] = experiment: loss of total cells relative to no-compound high-control median (toxicity); higher = more toxic (fewer cells); conditions: 24 h
Human fetal astrocytes [2] = experiment: synaptosome phagocytosis (pHrodo/calcein intensity ratio) relative to plate median of data wells; higher = more phagocytosis; conditions: 24 h

Row | SMILES | loss of total cells (Human fetal astrocytes [1]; 1.39 µM) [%] | loss of total cells (Human fetal astrocytes [1]; 2.78 µM) [%] | loss of total cells (Human fetal astrocytes [1]; 5.56 µM) [%] | loss of total cells (Human fetal astrocytes [1]; 11.11 µM) [%] | loss of total cells (Human fetal astrocytes [1]; 22.22 µM) [%] | synaptosome phagocytosis (Human fetal astrocytes [2]; 1.39 µM) [%] | synaptosome phagocytosis (Human fetal astrocytes [2]; 2.78 µM) [%] | synaptosome phagocytosis (Human fetal astrocytes [2]; 5.56 µM) [%] | synaptosome phagocytosis (Human fetal astrocytes [2]; 11.11 µM) [%] | synaptosome phagocytosis (Human fetal astrocytes [2]; 22.22 µM) [%]
1 | CCCCCCCCCCCCCCCCCCOCC(COP(=O)([O-])OCC[N+](C)(C)C)OC (stereo not given) | -18 | -16.2 | 0.8 | -34.5 | 8.8 | 87.7 | 95.5 | 101 | 92 | 115
2 | CCCN(CCc1ccccc1)C1CCc2c(O)cccc2C1 (racemic) [(±)-PPHT hydrochloride] | -20.8 | -17.1 | -10.1 | -24.9 | -39.5 | 91.5 | 120 | 82.1 | 102 | 85.1
3 | Oc1cc2c(cc1O)C(c1ccccc1)CNCC2 (racemic) | -15.5 | -14.5 | -18.1 | 6.7 | 6.4 | 89.9 | 126 | 123 | 123 | 107
4 | NC(=O)C(=O)O [Sodium Oxamate] | -3.3 | 4.1 | -1.4 | 21 | 2.8 | 102 | 100 | 119 | 127 | 118
5 | CN1CCc2ccccc2Cc2[nH]c3ccccc3c2CC1 | -18.5 | -14 | 2.3 | 13.3 | 14 | 85.1 | 70.3 | 112 | 99.4 | 120
6 | CN(C)C(N)=NCCC[C@H](N)C(=O)O [N^G,N^G-Dimethylarginine hydrochloride] | -7.1 | -11.1 | 8.2 | -10.3 | -8 | 119 | 98 | 81.3 | 93.7 | 98.3
7 | CCNC(=O)N1CCN(CCCC(c2ccc(F)cc2)c2ccc(F)cc2)CC1 [Amperozide hydrochloride] | -18 | -15.6 | -4.1 | -4.9 | 1.1 | 75.1 | 83 | 99.1 | 99.2 | 94.3
8 | N=C(N)c1ccccc1 [Benzamidine hydrochloride] | -19.8 | -14.4 | -5.1 | -0.4 | -11.7 | 125 | 114 | 122 | 110 | 98
9 | O=C(N[C@@H](Cc1ccccc1)C(=O)CCl)OCc1ccccc1 [Z-L-Phe chloromethyl ketone] | -18 | -12 | -10.6 | 8.5 | 59.8 | 92.9 | 93.1 | 75.1 | 23.9 | 2.1
10 | COc1cc2c(CCNC(C)=O)c[nH]c2cc1O [6-Hydroxymelatonin] | 8.8 | -24.8 | -4.9 | -21.1 | 6.4 | 105 | 111 | 124 | 118 | 117
11 | CCOC(=O)Nc1ccc(NCc2ccc(F)cc2)nc1N [Flupirtine maleate] | 13.8 | -6 | 0 | -13 | -2.4 | 125 | 112 | 101 | 113 | 150
12 | CN(Cc1cnc2nc(N)nc(N)c2n1)c1ccc(C(=O)N[C@@H](CCC(=O)O)C(=O)O)cc1 [Methotrexate] | -23.9 | -15.3 | -10.6 | -23.8 | 6.4 | 89.5 | 88.2 | 83.8 | 75 | 80.6
13 | FC(F)(F)c1cc(COC2CCCNC2c2ccccc2)cc(C(F)(F)F)c1 [L-733,060 hydrochloride] | -17.5 | -14 | 18.3 | 18.1 | 38.3 | 105 | 114 | 122 | 76.7 | 70
14 | Cc1cccc(/C=C/c2ccccc2)n1 | -33.2 | -19.5 | -7.9 | -8.8 | -15.6 | 108 | 126 | 127 | 80.9 | 113
15 | CC(C)[C@@H]1NC(=O)[C@H](CCCCN)NC(=O)[C@@H](Cc2c[nH]c3ccccc23)NC(=O)[C@H](Cc2ccc(O)cc2)NC(=O)[C@H](C)N(C)C(=O)[C@H](Cc2ccccc2)NC1=O [Seglitide] | -5.3 | -27.2 | -21.9 | -10.3 | -23 | 130 | 121 | 97.4 | 113 | 142
16 | CC1CNCCN1S(=O)(=O)c1cccc2cnccc12 (stereo not given) [H-7 dihydrochloride] | -10.5 | -23.9 | -6.6 | -4 | -4 | 98.1 | 96.1 | 77.2 | 94.2 | 66.5
17 | CC(O)C(O)[C@H]1CNc2nc(N)[nH]c(=O)c2N1 (stereo partly drawn) [(6R)-5,6,7,8-Tetrahydro-L-biopterin hydrochloride] | -11.5 | -8.1 | -9 | -17.2 | -35.4 | 132 | 128 | 130 | 113 | 112
18 | NC(C(=O)O)C(O)C(=O)O (racemic) [DL-threo-beta-hydroxyaspartic acid] | -41.4 | -17.9 | -14 | -11.2 | 3.2 | 97.3 | 114 | 92.9 | 98.9 | 145
19 | COc1ccccc1N1CCN(CC(O)COc2cccc3ccccc23)CC1 (stereo not given) [Naftopidil dihydrochloride] | -8.1 | -4.1 | 8 | -7.6 | 13.1 | 112 | 90.7 | 119 | 105 | 84.7
20 | O=C(Nc1ccccc1)c1cc([N+](=O)[O-])ccc1Cl | -4.3 | 7.7 | 2.3 | 10.5 | 20.6 | 75.1 | 87 | 90.2 | 64.9 | 91.7

Row | SMILES | loss of total cells (Human fetal astrocytes [1]; 1.39 µM) [%] | loss of total cells (Human fetal astrocytes [1]; 2.78 µM) [%] | loss of total cells (Human fetal astrocytes [1]; 5.56 µM) [%] | loss of total cells (Human fetal astrocytes [1]; 11.11 µM) [%] | loss of total cells (Human fetal astrocytes [1]; 22.22 µM) [%] | synaptosome phagocytosis (Human fetal astrocytes [2]; 1.39 µM) [%] | synaptosome phagocytosis (Human fetal astrocytes [2]; 2.78 µM) [%] | synaptosome phagocytosis (Human fetal astrocytes [2]; 5.56 µM) [%] | synaptosome phagocytosis (Human fetal astrocytes [2]; 11.11 µM) [%] | synaptosome phagocytosis (Human fetal astrocytes [2]; 22.22 µM) [%]
21 | Cn1ccc2cc(NC(=O)Nc3cccnc3)ccc21 | -23.9 | -5.1 | -5.1 | 1.3 | -11.7 | 77.7 | 76.6 | 103 | 98.9 | 98.9
22 | Nc1nc2c(nc(Br)n2C2OC3COP(=O)(O)O[C@@H]3C2O)c(=O)[nH]1 (stereo not given in full) [8-Bromo-cGMP sodium] | -24.6 | -14.7 | -7.8 | -26.5 | 11.7 | 101 | 79.6 | 103 | 116 | 107
23 | CN(C)CCCN1c2ccccc2CCc2ccc(Cl)cc21 [Clomipramine hydrochloride] | -11.7 | -22.3 | -13.4 | -11.2 | 15.4 | 102 | 92.7 | 81.9 | 92.9 | 69
24 | O=c1ccn([C@@H]2O[C@H](COP(=O)(O)OP(=O)(O)O)[C@@H](O)[C@H]2O)c(=O)[nH]1 [Uridine 5'-diphosphate sodium] | -12.7 | -23.1 | -6.7 | -21.1 | -26.3 | 111 | 111 | 116 | 94.9 | 117
25 | Cc1[nH]c(=O)c(C#N)cc1-c1ccncc1 [Milrinone] | 2.4 | 0.5 | 22.1 | 7.6 | 17.8 | 94.3 | 120 | 101 | 96.7 | 80.3
26 | O=C(O)c1cc(=O)cc(C(=O)O)[nH]1 [Chelidamic acid] | -16.1 | -18.6 | -18.9 | -16.6 | -1.1 | 99.5 | 82.6 | 84.6 | 116 | 76.6
27 | O=c1[nH]c2cc(C(F)(F)F)ccc2n1-c1cc(C(F)(F)F)ccc1O | -10 | 4.1 | 14.6 | 22.9 | 13.1 | 96 | 104 | 100 | 80.6 | 117
28 | CC(CCc1ccc(O)cc1)NCCc1ccc(O)c(O)c1 (stereo not given) [Dobutamine hydrochloride] | -7.1 | -6.8 | 12.3 | 1.3 | -11.2 | 116 | 98.1 | 121 | 97.1 | 69
29 | CC(C)C1C2CCC(C2)C1N (stereo not given) | -21.7 | -15.9 | -7.8 | -7.6 | 1.9 | 107 | 64.6 | 94.6 | 124 | 65.5
30 | CC(C)(C)c1ccc(S(=O)(=O)/C=C/C#N)cc1 | -5.1 | -11.4 | -21.7 | 7.6 | 80.8 | 108 | 123 | 104 | 73 | 66.8
31 | CCCc1c(OCCCOc2ccc(OCC(=O)O)cc2)ccc(C(C)=O)c1O | 17.2 | -21.4 | 3.3 | -20.2 | 0.8 | 83.7 | 113 | 89.2 | 69.5 | 96.7
32 | CNC(=N)NCCC[C@H](N)C(=O)O [NG-Monomethyl-L-arginine acetate] | -12.8 | -20.4 | -6.1 | 1.9 | -6.5 | 89 | 100 | 118 | 100 | 132
33 | O=C(O)/C=C/c1cnc[nH]1 [4-Imidazoleacrylic acid] | -17.1 | -35.6 | 7.9 | -27.2 | -30.5 | 87.3 | 123 | 93.6 | 136 | 125
34 | CC(C)(C)NC[C@H](O)COc1nsnc1N1CCOCC1 [S(-)-Timolol maleate] | -32.6 | -24.3 | -11.8 | -13.4 | -37 | 97 | 87.5 | 94.4 | 98.4 | 91.8
35 | NC/C=C/C(=O)O [(E)-4-amino-2-butenoic acid] | -7.8 | -16.5 | 0.6 | -2.7 | -21.4 | 93.1 | 109 | 117 | 119 | 141
36 | CCCc1c(-c2ccc(O)cc2)nn(-c2ccc(O)cc2)c1-c1ccc(O)cc1 [1,3,5-tris(4-hydroxyphenyl)-4-propyl-1H-pyrazole] | 2.9 | -24.8 | -9.9 | -18.4 | -14.4 | 103 | 127 | 94 | 123 | 107
37 | Cc1ccccc1N1CCN(S(=O)(=O)C[C@]23CC[C@H](CC2NC(=O)[C@@H](N)CCS(C)(=O)=O)C3(C)C)CC1 (stereo not given in full) | -8.1 | 3.2 | -0.5 | 6.7 | 26.2 | 103 | 88.7 | 104 | 132 | 85.2
38 | COc1cc2nc(N3CCN(C(=O)OCc4ccccc4)[C@H](C(=O)NC(C)(C)C)C3)nc(N)c2cc1OC | -51.2 | -4.5 | -20.8 | -6.5 | -37.9 | 107 | 80.5 | 85.4 | 110 | 111
39 | N=C(N)NCCC[C@H](N)C(=O)O [L-Arginine] | -15.4 | -10.2 | -3.2 | -7.6 | 2.6 | 89.3 | 66.2 | 124 | 123 | 119

Structural class, those above with a CF3 group
Row | SMILES | loss of total cells (Human fetal astrocytes [1]; 1.39 µM) [%] | loss of total cells (Human fetal astrocytes [1]; 2.78 µM) [%] | loss of total cells (Human fetal astrocytes [1]; 5.56 µM) [%] | loss of total cells (Human fetal astrocytes [1]; 11.11 µM) [%] | loss of total cells (Human fetal astrocytes [1]; 22.22 µM) [%] | synaptosome phagocytosis (Human fetal astrocytes [2]; 1.39 µM) [%] | synaptosome phagocytosis (Human fetal astrocytes [2]; 2.78 µM) [%] | synaptosome phagocytosis (Human fetal astrocytes [2]; 5.56 µM) [%] | synaptosome phagocytosis (Human fetal astrocytes [2]; 11.11 µM) [%] | synaptosome phagocytosis (Human fetal astrocytes [2]; 22.22 µM) [%]
13 | FC(F)(F)c1cc(COC2CCCNC2c2ccccc2)cc(C(F)(F)F)c1 [L-733,060 hydrochloride] | -17.5 | -14 | 18.3 | 18.1 | 38.3 | 105 | 114 | 122 | 76.7 | 70
27 | O=c1[nH]c2cc(C(F)(F)F)ccc2n1-c1cc(C(F)(F)F)ccc1O | -10 | 4.1 | 14.6 | 22.9 | 13.1 | 96 | 104 | 100 | 80.6 | 117
